Assay results: doi:10.1101/2024.07.25.605106
No constants are given. Whether binding was seen depends on the method and setting. Binding seen in cells or lysates may run through a third protein. Some entries that bind do so weakly or less than the wild type.

Protein sequences, listed by entry. Tags and fused reporters are not part of them.
UniProt Q9Y6K9: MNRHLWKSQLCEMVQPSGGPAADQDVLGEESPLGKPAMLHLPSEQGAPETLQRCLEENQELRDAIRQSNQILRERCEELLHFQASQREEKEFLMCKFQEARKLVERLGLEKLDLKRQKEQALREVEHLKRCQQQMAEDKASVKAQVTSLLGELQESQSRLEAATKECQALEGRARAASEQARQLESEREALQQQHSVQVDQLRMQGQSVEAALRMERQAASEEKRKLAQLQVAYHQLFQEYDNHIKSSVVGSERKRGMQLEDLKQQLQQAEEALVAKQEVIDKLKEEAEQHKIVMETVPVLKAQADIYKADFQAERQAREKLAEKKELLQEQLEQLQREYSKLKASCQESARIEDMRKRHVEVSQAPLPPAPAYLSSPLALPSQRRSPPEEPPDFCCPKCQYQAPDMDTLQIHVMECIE
UniProt P42224: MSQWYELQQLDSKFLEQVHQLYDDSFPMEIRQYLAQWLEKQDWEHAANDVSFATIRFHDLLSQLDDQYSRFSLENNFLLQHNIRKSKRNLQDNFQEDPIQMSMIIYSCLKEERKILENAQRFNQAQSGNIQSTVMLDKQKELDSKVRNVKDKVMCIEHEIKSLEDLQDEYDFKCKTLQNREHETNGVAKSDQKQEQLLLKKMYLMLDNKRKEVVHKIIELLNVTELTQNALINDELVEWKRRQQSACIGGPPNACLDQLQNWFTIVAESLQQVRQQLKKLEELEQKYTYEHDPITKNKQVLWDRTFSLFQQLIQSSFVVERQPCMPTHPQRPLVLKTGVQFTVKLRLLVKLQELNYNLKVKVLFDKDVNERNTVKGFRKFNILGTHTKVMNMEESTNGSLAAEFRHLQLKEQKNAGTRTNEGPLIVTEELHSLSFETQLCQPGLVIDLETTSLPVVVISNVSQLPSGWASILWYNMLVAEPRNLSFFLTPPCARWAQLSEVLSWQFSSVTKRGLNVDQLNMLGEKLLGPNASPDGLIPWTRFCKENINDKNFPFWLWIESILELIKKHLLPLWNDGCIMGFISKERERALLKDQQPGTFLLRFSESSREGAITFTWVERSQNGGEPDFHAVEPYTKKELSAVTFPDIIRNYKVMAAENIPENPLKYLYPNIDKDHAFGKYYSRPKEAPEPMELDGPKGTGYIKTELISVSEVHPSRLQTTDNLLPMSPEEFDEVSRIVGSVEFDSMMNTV

Biological target: T1, CYLD (human (endogenous in THP-1)) (UniProt Q9NQC7)
T1 sequence: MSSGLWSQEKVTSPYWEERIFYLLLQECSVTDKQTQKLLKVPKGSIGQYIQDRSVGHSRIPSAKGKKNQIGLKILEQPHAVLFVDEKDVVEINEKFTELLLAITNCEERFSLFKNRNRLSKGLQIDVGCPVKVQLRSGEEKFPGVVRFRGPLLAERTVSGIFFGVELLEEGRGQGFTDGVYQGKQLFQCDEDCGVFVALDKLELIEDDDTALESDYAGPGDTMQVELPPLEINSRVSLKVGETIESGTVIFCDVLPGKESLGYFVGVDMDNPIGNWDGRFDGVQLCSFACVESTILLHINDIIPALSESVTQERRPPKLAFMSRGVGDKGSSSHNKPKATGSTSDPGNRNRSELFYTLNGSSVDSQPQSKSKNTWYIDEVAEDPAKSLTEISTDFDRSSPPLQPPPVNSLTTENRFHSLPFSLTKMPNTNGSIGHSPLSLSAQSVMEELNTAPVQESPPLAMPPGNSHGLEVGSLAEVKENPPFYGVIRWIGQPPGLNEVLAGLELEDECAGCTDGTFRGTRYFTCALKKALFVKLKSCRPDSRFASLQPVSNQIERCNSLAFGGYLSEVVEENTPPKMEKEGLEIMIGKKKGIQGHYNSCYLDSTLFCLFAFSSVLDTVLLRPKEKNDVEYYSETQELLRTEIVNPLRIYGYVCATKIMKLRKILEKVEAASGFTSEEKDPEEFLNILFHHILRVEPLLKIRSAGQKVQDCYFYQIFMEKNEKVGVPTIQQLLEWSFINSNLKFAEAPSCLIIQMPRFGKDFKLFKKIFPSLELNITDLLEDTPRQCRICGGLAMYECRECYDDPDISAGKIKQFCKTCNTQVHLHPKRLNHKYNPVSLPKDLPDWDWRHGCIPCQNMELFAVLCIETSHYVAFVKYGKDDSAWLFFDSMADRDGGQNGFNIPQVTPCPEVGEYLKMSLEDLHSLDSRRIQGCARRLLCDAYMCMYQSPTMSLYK
Test: co-IP

| Substance | binding |
| --- | --- |
| IKKγ/NEMO (from UniProt Q9Y6K9 1-419) | binds |
| STAT1 (from UniProt P42224 1-750) | binds |
